Source: publication PMC7296024
No constants are given. Whether binding was seen depends on the method and setting. Binding seen in cells or lysates may run through a third protein. Some binding calls cover weakened binding; strength is not graded here. For some of these results: Tags and fused reporters may be left off the sequences shown.

The chains behind the UniProt entries cited, without tags or fusion partners.
UniProt P35222: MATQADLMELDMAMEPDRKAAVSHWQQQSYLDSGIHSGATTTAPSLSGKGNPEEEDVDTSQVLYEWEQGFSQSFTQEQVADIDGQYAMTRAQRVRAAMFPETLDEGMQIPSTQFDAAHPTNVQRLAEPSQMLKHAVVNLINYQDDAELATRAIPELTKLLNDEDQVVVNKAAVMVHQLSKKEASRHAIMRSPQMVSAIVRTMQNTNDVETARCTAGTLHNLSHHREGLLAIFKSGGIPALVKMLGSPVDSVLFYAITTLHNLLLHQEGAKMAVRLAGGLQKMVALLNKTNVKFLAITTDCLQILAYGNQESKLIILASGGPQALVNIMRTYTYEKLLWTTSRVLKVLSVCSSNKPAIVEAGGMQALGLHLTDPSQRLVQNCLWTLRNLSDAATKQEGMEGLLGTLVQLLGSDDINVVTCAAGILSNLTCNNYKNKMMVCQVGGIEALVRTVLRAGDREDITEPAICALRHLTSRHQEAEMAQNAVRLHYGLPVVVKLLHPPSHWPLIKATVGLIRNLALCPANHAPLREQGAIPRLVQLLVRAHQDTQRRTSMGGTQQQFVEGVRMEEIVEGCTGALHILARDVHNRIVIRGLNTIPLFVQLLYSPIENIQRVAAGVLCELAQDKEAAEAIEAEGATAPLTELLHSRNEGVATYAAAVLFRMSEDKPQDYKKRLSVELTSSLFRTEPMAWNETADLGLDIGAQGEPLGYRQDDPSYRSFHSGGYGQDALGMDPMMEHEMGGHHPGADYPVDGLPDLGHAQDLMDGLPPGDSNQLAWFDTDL

T1: Epsin 3 (EPN3), endogenous in MCF10A-Ctr cells (human (endogenous in MCF10A)) (UniProt Q9H201)
T1 sequence: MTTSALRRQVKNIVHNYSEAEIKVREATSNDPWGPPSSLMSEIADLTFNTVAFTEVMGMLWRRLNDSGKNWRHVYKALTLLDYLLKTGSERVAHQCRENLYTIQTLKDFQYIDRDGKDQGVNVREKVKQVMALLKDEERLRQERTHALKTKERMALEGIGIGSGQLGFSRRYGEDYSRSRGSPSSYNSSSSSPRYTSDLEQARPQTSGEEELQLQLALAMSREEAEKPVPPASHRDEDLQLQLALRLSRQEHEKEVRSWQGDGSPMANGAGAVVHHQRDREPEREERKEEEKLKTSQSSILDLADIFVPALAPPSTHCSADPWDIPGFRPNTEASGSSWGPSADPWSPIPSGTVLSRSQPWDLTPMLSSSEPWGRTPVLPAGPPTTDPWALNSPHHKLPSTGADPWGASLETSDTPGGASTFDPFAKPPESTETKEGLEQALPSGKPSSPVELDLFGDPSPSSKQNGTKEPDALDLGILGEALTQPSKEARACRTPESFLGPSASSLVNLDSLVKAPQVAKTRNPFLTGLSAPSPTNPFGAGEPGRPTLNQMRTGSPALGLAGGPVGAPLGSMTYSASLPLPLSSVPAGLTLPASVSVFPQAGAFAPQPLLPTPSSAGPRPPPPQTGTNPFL

T2: Flag-EPN3 (full-length human Epsin 3 overexpressed in MCF10A cells) (human) (UniProt Q9H201)
T2 sequence: T1 sequence

B1: p120-catenin (protein, UniProt O60716 1-968)
chain: MDDSEVESTASILASVKEQEAQFEKLTRALEEERRHVSAQLERVRVSPQDANPLMANGTLTRRHQNGRFVGDADLERQKFSDLKLNGPQDHSHLLYSTIPRMQEPGQIVETYTEEDPEGAMSVVSVETSDDGTTRRTETTVKKVVKTVTTRTVQPVAMGPDGLPVDASSVSNNYIQTLGRDFRKNGNGGPGPYVGQAGTATLPRNFHYPPDGYSRHYEDGYPGGSDNYGSLSRVTRIEERYRPSMEGYRAPSRQDVYGPQPQVRVGGSSVDLHRFHPEPYGLEDDQRSMGYDDLDYGMMSDYGTARRTGTPSDPRRRLRSYEDMIGEEVPSDQYYWAPLAQHERGSLASLDSLRKGGPPPPNWRQPELPEVIAMLGFRLDAVKSNAAAYLQHLCYRNDKVKTDVRKLKGIPVLVGLLDHPKKEVHLGACGALKNISFGRDQDNKIAIKNCDGVPALVRLLRKARDMDLTEVITGTLWNLSSHDSIKMEIVDHALHALTDEVIIPHSGWEREPNEDCKPRHIEWESVLTNTAGCLRNVSSERSEARRKLRECDGLVDALIFIVQAEIGQKDSDSKLVENCVCLLRNLSYQVHREIPQAERYQEAAPNVANNTGPHAASCFGAKKGKDEWFSRGKKPIEDPANDTVDFPKRTSPARGYELLFQPEVVRIYISLLKESKTPAILEASAGAIQNLCAGRWTYGRYIRSALRQEKALSAIADLLTNEHERVVKAASGALRNLAVDARNKELIGKHAIPNLVKNLPGGQQNSSWNFSEDTVISILNTINEVIAENLEAAKKLRETQGIEKLVLINKSGNRSEKEVRAAALVLQTIWGYKELRKPLEKEGWKKSDFQVNLNNASRSQSSHSYDDSTLPLIDRNQKSDKKPDREEIQMSNMGSNTKSLDNNYSTPNERGDHNRTLDRSGDLGDMEPLKGTTPLMQDEGQESLEEELDVLVLDDEGGQVSYPSMQKI

Key:
[1] = target: T1, Epsin 3 (EPN3), endogenous in MCF10A-Ctr cells (human (endogenous in MCF10A)); assay: co-IP; MCF10A-Ctr and MCF10A-EPN3 cells, EGF starved overnight, cross-linked with 1% formaldehyde for 10 min at RT, lysed in RIPA buffer and sonicated; 1 mg lysate, IP with anti-EPN3 rabbit polyclonal Ab (or control IgG) and Protein G, 4 washes in RIPA; immunoblot of partners
[2] = target: T2, Flag-EPN3 (full-length human Epsin 3 overexpressed in MCF10A cells) (human); assay: as above

Row | binding [1] | binding [2] | Molecule
1 | binds | binds | β-catenin (from UniProt P35222 1-781)
2 | binds | binds | B1
